Measurements as given in US20060068118A1, “Silicon-containing treatments for solid substrates” (priority 2003, published 2006).

How the values were obtained:
[1] = Bromphenol Blue (BPB) Extraction Method, modified Dow Corning test 0824
[2] = BPB Direct Stain test after cold water rinse

SMILES: CCCCCCCCCCCCCCCCCC[N+](C)(C)CCC[Si](OC)(OC)OC.[Cl-] [Sample 1, N,N-dimethyl-N-Octadecyl-3-(trimethoxysilyl)propanaminium chloride]
- OSB % BPB ext. ([1]; Example 4, OSB, AA 1.25 mg/inch^2): 46%
- decking % BPB ext. ([1]; Example 4, decking, AA 1.25 mg/inch^2): 3%
- shingle % BPB ext. ([1]; Example 4, shingle, AA 1.25 mg/inch^2, spray, cold water rinse): 3%
- siding % BPB ext. ([1]; Example 4, AA 1.25 mg/inch^2): 4%
- wood % BPB ext. ([1]; Example 4, wood, AA 1.25 mg/inch^2): 37%
- OSB % BPB ext. ([1]; Example 5, OSB, AA 1.25 mg/inch^2): 36%
- decking % BPB ext. ([1]; Example 5, decking, AA 1.25 mg/inch^2): 3%
- siding % BPB ext. ([1]; Example 5, AA 1.25 mg/inch^2): 4%
- wood % BPB ext. ([1]; Example 5, wood, AA 1.25 mg/inch^2): 37%
- % BPB Extraction ([1]; shingle, AA Actives 0.05%, room temperature, rinsed): 3%
- % BPB Extraction ([1]; shingle, AA Actives 1%, room temperature, rinsed): 8%

SMILES: CCCCCCCCCCCCCCCCCC[N+](C)(C)CCC[Si](OC)(OC)OC.[Cl-] [AEM, N,N-dimethyl-N-Octadecyl-3-(trimethoxysilyl)propanaminium chloride]
- % BPB Extraction ([1]; Example 7, OSB, brushed on, 135 mg/ft^2 AEM Actives then 90 mg/ft^2 Na4SiO4 Actives, water rinse): 54%
- % BPB Extraction ([1]; Example 7, OSB, brushed on, 135 mg/ft^2 AEM Actives then 180 mg/ft^2 Na4SiO4 Actives, water rinse): 49%
- % BPB Extraction ([1]; Example 7, OSB, brushed on, 135 mg/ft^2 AEM Actives then 270 mg/ft^2 Na4SiO4 Actives, water rinse): 62%
- % BPB Extraction, OSB Brush ([1]; Example 9, OSB, washed and cleaned with a brush): 40%
- % BPB Extraction, OSB No Brush ([1]; Example 9, OSB, washed, no brush): 35%
- % BPB Extraction, Decking Brush ([1]; Example 9, decking, washed and cleaned with a brush): 4%
- % BPB Extraction, Decking No Brush ([1]; Example 9, decking, washed with cold water, no brush): 10%
- % BPB Extraction, Shingle Brush ([1]; Example 9, shingle, washed and cleaned with a brush): 4%
- % BPB Extraction, Shingle No Brush ([1]; Example 9, shingle, washed, no brush): 2%
- % BPB Extraction, Wood Brush ([1]; Example 9, wood, washed and cleaned with a brush): 30%
- % BPB Extraction, Wood No Brush ([1]; Example 9, wood, washed, no brush): 30%
- OSB % BPB Ext ([1]; Example 10, OSB, AEM 1.25 mg/inch^2, rinsed, measured wet): 41%
- Decking % BPB Ext ([1]; Example 10, decking, AEM 1.25 mg/inch^2, rinsed, measured wet): 19%
- Shingle % BPB Ext ([1]; Example 10, shingle, AEM 1.25 mg/inch^2, rinsed, measured wet): 11%
- BPB color on the shingle ([2]; Example 1, 1% agent alone sprayed on asphalt roofing shingle, immediately rinsed in cold water): no BPB color
- adherence to substrate after water washing ([2]; Example 2, agent spray followed immediately by potassium methyl siliconate spray, rinsed with copious water): adhered to the substrate and remained there after the copious water washing
